Laboratory results: PubChem BioAssay AID1259285 (Sanger Institute, 2017)
In all, the deposit lists 794 reagents; shown is a random part of them. 20 of all reagents (2.5%) count as active. 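Calls rest on the drug-free arm alone and ignore synergy scores; viability ratios seem to be capped at 1.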 A number with no mark means an inactive call. Not all columns of the deposit are shown. No sequences are given here. Not given: the amount of reagent, the time to read-out.

- Test: 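Kinases needed for HCC56 growth and kinases whose loss boosts drug effects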 (primary screen)
- System: human HCC56 colorectal cancer cells
- Reagent: siRNA pool against human genes
- Conditions: DMSO vehicle, or anchor drug BYL719 at 1 µM, cetuximab at 5 µg/ml, or trametinib at 10 nM
- Measured: 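Viability as a ratio to non-targeting pool wells, averaged over replicates and turned into a robust z-score; synergy scores with BYL719, cetuximab or trametinib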
- Reading the numbers: viability robust z-score, no drug: higher = more viable cells, weaker knock-down effect
- Hit rule: 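a knock-down counts as essential if its viability z-score without drug is under -3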
- Calls: active = essential without drug; inactive = no change without drug

The first 3 entries, ahead of the listing:
ROR2 [SID56478550] | viability robust z-score, no drug = 0.458
MAP3K19 [SID135620896] | viability robust z-score, no drug = -1.49
NLK [SID56478865] | viability robust z-score, no drug = 0.458

Main list, from the start:
ROR2 [SID56478550] | viability robust z-score, no drug = 0.458
MAP3K19 [SID135620896] | viability robust z-score, no drug = -1.49
NLK [SID56478865] | viability robust z-score, no drug = 0.458
KSR1 [SID152156641] | viability robust z-score, no drug = -3.77 (active)
DTYMK [SID135621237] | viability robust z-score, no drug = 0.458
SRPK2 [SID56478890] | viability robust z-score, no drug = 0.0526
RBM10 [SID134313901] | viability robust z-score, no drug = 0.458
CDK5R1 [SID135621688] | viability robust z-score, no drug = 0.287
MAP3K4 [SID152151893] | viability robust z-score, no drug = 0.458
ADPGK [SID134311981] | viability robust z-score, no drug = 0.353
STK11 [SID152153881] | viability robust z-score, no drug = 0.458
STYK1 [SID56478493] | viability robust z-score, no drug = 0.0285
DBF4 [SID135620786] | viability robust z-score, no drug = 0.458
CSNK2B [SID56479183] | viability robust z-score, no drug = 0.458
AK7 [SID152153423] | viability robust z-score, no drug = 0.458
FBXW7 [SID152153107] | viability robust z-score, no drug = 0.458
STRADA [SID152149670] | viability robust z-score, no drug = 0.458
TGFBR1 [SID152153272] | viability robust z-score, no drug = 0.458
IGF1R [SID152153009] | viability robust z-score, no drug = 0.458
CDKL2 [SID152156267] | viability robust z-score, no drug = 0.458
MAP3K8 [SID56478664] | viability robust z-score, no drug = -2.38
MAPK7 [SID56478666] | viability robust z-score, no drug = 0.458
NUP62 [SID135622326] | viability robust z-score, no drug = 0.458
TESK1 [SID152149255] | viability robust z-score, no drug = 0.458
NUAK2 [SID56479046] | viability robust z-score, no drug = -0.00578
NEK10 [SID56478763] | viability robust z-score, no drug = -0.836
MAGI3 [SID152154544] | viability robust z-score, no drug = 0.458
TLK1 [SID56478782] | viability robust z-score, no drug = 0.186
